# Laboratory results reported in PubChem BioAssay AID651640 (Broad Institute, 2012).
# Hit rate of the full screen: of about 350,000 compounds, about 6,000 (1.7%) were called active. Inconclusive means that the source gave no clear call. Such entries were picked first, then a sample of the others. No stated cut-off is given here; in the data, active means CPE inhibition above about 20% (passing the limit was not always enough); inconclusive means no clear call, values can overlap the other calls; tested in BHK-21 cells.
# Experiment: protection of cells from dengue 2 killing – plate reader, single concentration, primary screen (AID 651640);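 further: 0% = median of neutral control wells and 100% = median of positive control wells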
# Details: DENV2-infected cells, cytopathic effect rescue, at 9.99 µM, active compounds read high
row,SMILES,CPE inhibition
1,Cc1ccc(C(=O)OCC(=O)NC(C)c2ccccc2)cc1C (stereo not given),inconclusive: 35.4%
2,CN(C1CCCCC1)S(=O)(=O)c1ccc(C(=O)Nc2sc3c(c2C(N)=O)CC(C)(C)NC3(C)C)cc1,inactive: 0.346%
3,COCC(=O)N1CCCCN2[C@H](C1)[C@@H](c1ccc(C#Cc3cccnc3)cc1)[C@@H]2CO,active: 23.5%
4,O=C(Cc1cccc([N+](=O)[O-])c1)Nc1cccc(C(=O)N2CCCC2)c1,inactive: 1.84%
5,C[C@H](CO)N1C[C@H](C)[C@H](CN(C)Cc2ccc(C(=O)Nc3ccccc3N)cc2)Oc2ccc(NC(=O)CCC(F)(F)F)cc2C1=O,inactive: 9.01%
6,O=C1C=CC(=O)N1CCCCCCCCCCN1C(=O)C=CC1=O,inactive: 2.55%
7,Cc1nnc(SCC(=O)N(CC(C)C)c2c(N)n(Cc3ccccc3)c(=O)[nH]c2=O)n1N,active: 78.5%
8,CC(C)C[C@H](NC(=O)Nc1cccc(Br)c1)C(=O)O,inactive: -15.2%
9,COc1ccc(S(=O)(=O)N(C)C[C@@H]2OCCCC[C@H](C)Oc3ccc(NS(=O)(=O)c4ccccc4)cc3C(=O)N([C@H](C)CO)C[C@@H]2C)cc1,inconclusive: 27.6%
10,C[C@]12CCC(=O)C[C@@H]1CC[C@@H]1[C@@H]2CC[C@]2(C)[C@@H](C(=O)COC(=O)CCC(=O)O)CC[C@@H]12,inconclusive: 38.5%
11,COC(=O)CN1C(=O)N/C(=C/c2cc(Cl)c(OC)c(OC)c2)C1=O,inactive: 1.49%
12,Cc1ccc(S(=O)(=O)N(C)C[C@@H]2Oc3ccc(NC(=O)Cc4ccccc4)cc3CC(=O)N([C@@H](C)CO)C[C@H]2C)cc1,inconclusive: 33.9%
13,C[C@H]1CN([C@@H](C)CO)C(=O)c2cccc(NC(=O)c3cnccn3)c2O[C@H]1CN(C)Cc1ccc(Cl)c(Cl)c1,active: 22.7%
14,Cc1cc(C)c(OCC(=O)N(Cc2ccccc2)C2CCS(=O)(=O)C2)c(C)c1 (stereo not given),inconclusive: 28.6%
15,Cc1c(O)cnc2nn(-c3ccccc3)c(=N)n12,inconclusive: 54.3%
16,COc1ccc2[nH]c3c(c2c1)CCN1C(=O)N([C@@H](C)C(=O)NC2CCCCC2C)C(=O)[C@]31C (stereo not given in full),active: 47.7%
17,C[C@@H]1CN([C@@H](C)CO)C(=O)CCCn2nncc2CO[C@@H]1CN(C)C(=O)c1ccc2ccn(C)c2c1,inconclusive: 21%
18,CCNC(=O)Nc1ccc2c(c1)C(=O)N(C)[C@@H]1CC[C@H](CC(=O)NCc3ccccc3F)O[C@H]1CO2,active: 70.6%
19,COc1ccc(S(=O)(=O)n2ccc(C)n2)cc1C,inconclusive: 20.3%
20,O=C(CCN1CCCCC1)NCC[C@@H]1CC[C@H](NC(=O)Nc2ccc(Cl)cc2)[C@H](CO)O1,inactive: -8.14%
21,COc1ccc2c3c(n(C)c2c1)[C@@H](CO)NCC31CN(CC2CC2)C1,inconclusive: 29.3%
22,CN(C)CCNC(=O)c1onc(CSc2ccncc2)c1C(=O)NCCN(C)C,inconclusive: 36.6%
23,C[C@H](CO)N1C[C@H](C)[C@H](CN(C)Cc2ccc(C(F)(F)F)cc2)OCCCC[C@H](C)Oc2ccc(NC(=O)c3ccncc3)cc2C1=O,inconclusive: 20.8%

row,SMILES,CPE inhibition
1,CC(=O)N1CC[C@@H]2[C@@H](CO)N(C)c3ccc(-c4cccc(F)c4)cc3[C@@H]21,inactive: -4.01%
2,Cc1noc(/C=C/N(C)C)c1S(=O)(=O)N1CCCC(C(=O)N2CCCCC2)C1 (stereo not given),inconclusive: 23.9%
3,Cc1ccccc1S(=O)(=O)N1CCCCN2[C@@H](CO)[C@@H](c3ccc(-c4cncnc4)cc3)[C@@H]2C1,inactive: 15%
4,C[C@@H]1CCCCO[C@@H](CN(C)S(=O)(=O)c2ccccc2)[C@@H](C)CN([C@@H](C)CO)C(=O)c2cc(NS(=O)(=O)c3ccc(Cl)cc3)ccc2O1,inconclusive: 27.3%
5,O=C(C[C@H]1CC[C@@H]2[C@H](COC[C@@H](O)CN2S(=O)(=O)c2cccc(F)c2)O1)Nc1ccccc1,inconclusive: 21.8%
6,Cc1ccc(C)c(Cn2c3ccccc3c3cnn(CC(=O)NCCCN4CCOCC4)c(=O)c32)c1,inconclusive: 20.5%
7,Cc1ccc(S(=O)(=O)N2CCN(C(=O)C3CSC4(C)CCC(=O)N34)CC2)cc1C (stereo not given),inconclusive: 22.7%
8,O=S(=O)(c1cnc[nH]1)N1CCN(c2ccc(Cl)cc2)CC1,inconclusive: 20.1%
9,Cc1ccc(CN=c2c([N+](=O)[O-])nn(-c3cccc(C)c3)n2O)cc1,inactive: -3.84%
10,COc1cccc(-c2ccc([C@H]3[C@@H](CO)N(C(=O)Cc4ccccc4)[C@H]3C#N)cc2)c1,inconclusive: 32.1%
11,C[C@H](CO)N1C[C@H](C)[C@@H](CN(C)S(=O)(=O)c2cccs2)Oc2ccc(NC(=O)CCCN(C)C)cc2CC1=O,inconclusive: 52.9%
12,COc1ccccc1N1CCN(c2ccc3cc(S(=O)(=O)N4CCCCC4)ccc3n2)CC1,inconclusive: 20.5%
13,N#Cc1c(-c2ccccc2Cl)c2c([nH]c1=O)-c1ccccc1OC2,inactive: -5.04%
14,COc1ccc(C2CC(c3ccc(C)o3)=NN2C(C)=O)cc1 (stereo not given),active: 34.2%
15,C[C@H](CO)N1C[C@H](C)[C@@H](CN(C)S(=O)(=O)c2cn(C)cn2)Oc2ccc(NS(=O)(=O)c3ccc(F)cc3)cc2C1=O,inactive: 3.51%
16,CCOc1ccccc1NC(=O)Nc1cc(S(=O)(=O)N(C)C)ccc1C,inconclusive: 43.5%
17,O=C(CCCN1C(=O)/C(=C\c2ccccc2)SC1=S)Nc1ccc(O)cc1C(=O)O,inactive: -3.92%
18,C[C@@H]1CN([C@H](C)CO)C(=O)c2cccc(N(C)C)c2O[C@H]1CN(C)C(=O)Nc1ccccc1,inactive: 11.2%
19,CC1(Cc2cc(Cl)ccc2C(F)(F)F)C(=O)Nc2c(Cl)cccc21 (stereo not given),inconclusive: 43%
20,O=[N+]([O-])c1cccc(COc2ccc(CN3CCCCC3)cc2)c1,inactive: 3.37%
21,C#CCNC(=O)C1=C[C@H](c2cn(C(C)=O)c3ccccc23)C[C@H](OCCCCO)O1,inconclusive: 39.6%
22,CCC(c1nnnn1-c1c(C)cccc1C)N1CCN(C/C=C/c2ccccc2)CC1 (stereo not given),active: 106%

# 4 of the compounds above, bar-delimited:
row | SMILES | CPE inhibition
4 | C[C@@H]1CCCCO[C@@H](CN(C)S(=O)(=O)c2ccccc2)[C@@H](C)CN([C@@H](C)CO)C(=O)c2cc(NS(=O)(=O)c3ccc(Cl)cc3)ccc2O1 | inconclusive: 27.3%
5 | O=C(C[C@H]1CC[C@@H]2[C@H](COC[C@@H](O)CN2S(=O)(=O)c2cccc(F)c2)O1)Nc1ccccc1 | inconclusive: 21.8%
6 | Cc1ccc(C)c(Cn2c3ccccc3c3cnn(CC(=O)NCCCN4CCOCC4)c(=O)c32)c1 | inconclusive: 20.5%
7 | Cc1ccc(S(=O)(=O)N2CCN(C(=O)C3CSC4(C)CCC(=O)N34)CC2)cc1C (stereo not given) | inconclusive: 22.7%
